Experimental data from the supplement of paper PMC10849652.
The other results are listed elsewhere or left out.

Protein sequences, listed by entry. Tags and fused reporters are not part of them. Lines headed by an entry give the natural chain unless they say otherwise; changes in a name come on top.
UniProt O95297: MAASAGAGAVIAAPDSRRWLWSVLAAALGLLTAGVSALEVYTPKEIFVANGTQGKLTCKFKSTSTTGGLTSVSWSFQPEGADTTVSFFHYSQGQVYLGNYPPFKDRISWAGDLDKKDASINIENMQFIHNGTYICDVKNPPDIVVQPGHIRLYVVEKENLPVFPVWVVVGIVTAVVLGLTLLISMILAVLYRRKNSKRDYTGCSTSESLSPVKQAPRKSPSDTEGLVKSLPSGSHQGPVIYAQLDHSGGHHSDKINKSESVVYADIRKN
UniProt Q9UBU8, whole entry, looked up: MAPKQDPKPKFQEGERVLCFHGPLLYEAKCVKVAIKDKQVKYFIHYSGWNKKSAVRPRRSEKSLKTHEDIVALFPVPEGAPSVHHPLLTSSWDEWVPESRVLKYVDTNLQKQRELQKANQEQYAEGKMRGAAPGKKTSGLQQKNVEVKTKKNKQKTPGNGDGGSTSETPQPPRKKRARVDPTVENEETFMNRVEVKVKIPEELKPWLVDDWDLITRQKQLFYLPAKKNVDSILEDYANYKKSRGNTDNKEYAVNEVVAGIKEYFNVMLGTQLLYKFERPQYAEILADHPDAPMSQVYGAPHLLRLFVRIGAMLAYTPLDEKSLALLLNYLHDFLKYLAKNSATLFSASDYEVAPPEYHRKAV
UniProt Q03111: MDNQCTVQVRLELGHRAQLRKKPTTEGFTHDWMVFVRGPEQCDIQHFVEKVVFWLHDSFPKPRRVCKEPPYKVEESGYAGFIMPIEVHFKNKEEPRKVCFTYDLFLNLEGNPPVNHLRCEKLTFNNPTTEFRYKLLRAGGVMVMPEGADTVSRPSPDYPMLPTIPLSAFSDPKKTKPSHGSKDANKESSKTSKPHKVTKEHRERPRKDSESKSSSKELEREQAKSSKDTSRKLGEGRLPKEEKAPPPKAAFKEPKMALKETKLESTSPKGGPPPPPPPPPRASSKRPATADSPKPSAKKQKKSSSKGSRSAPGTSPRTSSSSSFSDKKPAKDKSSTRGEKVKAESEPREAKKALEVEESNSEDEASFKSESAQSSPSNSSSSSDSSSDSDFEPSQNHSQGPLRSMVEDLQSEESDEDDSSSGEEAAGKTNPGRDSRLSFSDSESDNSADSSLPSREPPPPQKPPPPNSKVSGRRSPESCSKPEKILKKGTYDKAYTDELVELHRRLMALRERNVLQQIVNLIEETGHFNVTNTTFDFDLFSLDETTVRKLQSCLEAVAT
UniProt Q8N3F8: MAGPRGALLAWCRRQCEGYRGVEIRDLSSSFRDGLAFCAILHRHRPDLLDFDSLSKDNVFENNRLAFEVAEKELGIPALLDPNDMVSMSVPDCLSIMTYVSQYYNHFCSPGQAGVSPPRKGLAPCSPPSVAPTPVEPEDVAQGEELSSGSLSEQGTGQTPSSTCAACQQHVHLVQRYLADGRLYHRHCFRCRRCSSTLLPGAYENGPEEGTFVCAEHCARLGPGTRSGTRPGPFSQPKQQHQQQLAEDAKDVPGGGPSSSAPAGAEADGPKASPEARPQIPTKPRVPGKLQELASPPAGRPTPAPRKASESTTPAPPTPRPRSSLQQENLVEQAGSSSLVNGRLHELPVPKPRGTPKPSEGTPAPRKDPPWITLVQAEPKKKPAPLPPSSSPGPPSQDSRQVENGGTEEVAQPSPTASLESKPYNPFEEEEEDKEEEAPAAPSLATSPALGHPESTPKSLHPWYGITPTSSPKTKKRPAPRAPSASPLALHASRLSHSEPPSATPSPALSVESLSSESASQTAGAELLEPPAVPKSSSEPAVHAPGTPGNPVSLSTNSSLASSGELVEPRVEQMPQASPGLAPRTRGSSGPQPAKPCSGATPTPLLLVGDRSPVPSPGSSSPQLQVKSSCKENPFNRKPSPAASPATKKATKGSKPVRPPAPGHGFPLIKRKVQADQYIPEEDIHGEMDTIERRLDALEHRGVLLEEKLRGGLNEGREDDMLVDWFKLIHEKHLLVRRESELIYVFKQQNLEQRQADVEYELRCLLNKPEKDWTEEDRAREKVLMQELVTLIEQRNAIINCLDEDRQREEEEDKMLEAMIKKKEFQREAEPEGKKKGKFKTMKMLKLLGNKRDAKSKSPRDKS
UniProt Q14165: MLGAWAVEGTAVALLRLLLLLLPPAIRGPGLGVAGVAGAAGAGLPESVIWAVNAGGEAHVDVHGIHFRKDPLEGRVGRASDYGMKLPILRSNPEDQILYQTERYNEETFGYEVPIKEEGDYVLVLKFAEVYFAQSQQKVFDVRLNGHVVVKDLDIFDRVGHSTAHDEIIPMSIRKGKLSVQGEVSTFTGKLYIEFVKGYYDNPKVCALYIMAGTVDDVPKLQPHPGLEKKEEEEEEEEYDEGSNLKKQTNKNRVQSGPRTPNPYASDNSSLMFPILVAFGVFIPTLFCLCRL
UniProt P49959: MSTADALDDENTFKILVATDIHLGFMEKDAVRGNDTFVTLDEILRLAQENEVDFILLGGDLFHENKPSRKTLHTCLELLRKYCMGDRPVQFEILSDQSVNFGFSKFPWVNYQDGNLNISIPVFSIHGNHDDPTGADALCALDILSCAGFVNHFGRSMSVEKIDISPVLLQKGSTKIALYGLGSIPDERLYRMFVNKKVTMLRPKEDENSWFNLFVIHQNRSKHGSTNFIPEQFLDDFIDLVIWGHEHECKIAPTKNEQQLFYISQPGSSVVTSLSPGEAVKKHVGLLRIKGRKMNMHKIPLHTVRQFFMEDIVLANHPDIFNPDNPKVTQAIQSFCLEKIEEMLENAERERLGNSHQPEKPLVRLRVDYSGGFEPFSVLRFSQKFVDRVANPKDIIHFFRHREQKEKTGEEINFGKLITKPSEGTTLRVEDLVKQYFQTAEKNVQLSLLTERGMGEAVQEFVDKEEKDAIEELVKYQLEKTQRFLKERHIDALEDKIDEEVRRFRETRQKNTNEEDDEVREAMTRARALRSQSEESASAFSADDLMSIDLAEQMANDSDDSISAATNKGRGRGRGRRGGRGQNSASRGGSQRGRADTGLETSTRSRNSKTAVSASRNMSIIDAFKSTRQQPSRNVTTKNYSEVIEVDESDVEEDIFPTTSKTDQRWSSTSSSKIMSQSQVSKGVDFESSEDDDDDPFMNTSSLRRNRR
UniProt Q9H8M7: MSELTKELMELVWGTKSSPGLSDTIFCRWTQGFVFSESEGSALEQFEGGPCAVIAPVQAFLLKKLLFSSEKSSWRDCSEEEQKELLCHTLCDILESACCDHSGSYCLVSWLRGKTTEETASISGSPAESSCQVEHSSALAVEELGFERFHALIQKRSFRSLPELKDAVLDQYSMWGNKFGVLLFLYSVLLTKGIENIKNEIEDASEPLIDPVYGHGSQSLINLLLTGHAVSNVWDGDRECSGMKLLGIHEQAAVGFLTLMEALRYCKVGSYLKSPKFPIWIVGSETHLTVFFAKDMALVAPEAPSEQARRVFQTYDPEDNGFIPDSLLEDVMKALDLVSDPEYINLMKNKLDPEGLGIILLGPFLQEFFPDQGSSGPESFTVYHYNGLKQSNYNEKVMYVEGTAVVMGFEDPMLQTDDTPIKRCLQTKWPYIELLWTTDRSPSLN
UniProt Q9UH92: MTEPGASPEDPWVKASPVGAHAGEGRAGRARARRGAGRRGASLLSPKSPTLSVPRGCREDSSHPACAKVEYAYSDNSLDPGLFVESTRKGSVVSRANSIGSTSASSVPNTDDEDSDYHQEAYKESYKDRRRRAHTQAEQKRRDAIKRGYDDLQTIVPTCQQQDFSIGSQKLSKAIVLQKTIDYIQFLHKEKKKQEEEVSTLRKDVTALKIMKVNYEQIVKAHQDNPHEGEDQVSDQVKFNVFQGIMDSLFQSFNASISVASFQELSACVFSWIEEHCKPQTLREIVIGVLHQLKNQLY
UniProt Q15014, whole entry, looked up: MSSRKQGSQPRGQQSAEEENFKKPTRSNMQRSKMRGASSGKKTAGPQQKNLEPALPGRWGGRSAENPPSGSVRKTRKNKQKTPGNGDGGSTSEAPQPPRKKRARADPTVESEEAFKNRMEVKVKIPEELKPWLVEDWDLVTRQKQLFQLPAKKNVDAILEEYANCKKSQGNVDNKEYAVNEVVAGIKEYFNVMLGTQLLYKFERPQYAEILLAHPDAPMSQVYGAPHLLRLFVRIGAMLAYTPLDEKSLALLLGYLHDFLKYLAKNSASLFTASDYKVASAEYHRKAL

Assays:
Assay in all cases: log2 fold change, soluble protein after heating vs DMSO (PISA); higher = thermal stabilisation; K562 cells, 10 uM, 30 min; active = over 0.2 and 3.5 SD of the protein, either way, in both replicates (recomputed)
[1] = compound: COC1=CC=C(C=C1)CN2C=CC3=C2C=C(C=C3)C(=O)NO
Method in brief: (§1)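 K562 cells at 2×10^6 cells/mL were given 10 μM compound for 30 min. Aliquots then went through 3 min of heating across 48°C-58°C, were pooled, and were extracted in PBS with 0.5% NP-40 at 4°C, and the supernatant after 21,000xg for 90 min was quantified by TMTpro 16plex LC-MS/MS with channel sums equalised. Thermal stability relative to control samples, from duplicates, is given as log2 fold change.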

filanesib = compound: CON(C)C(=O)N1N=C(c2cc(F)ccc2F)S[C@@]1(CCCN)c1ccccc1 [filanesib]
Method in brief: as §1

zotarolimus = compound: CO[C@H]1C[C@@H]2CC[C@@H](C)[C@@](O)(O2)C(=O)C(=O)N2CCCC[C@H]2C(=O)O[C@H]([C@H](C)C[C@@H]2CC[C@H](n3cnnn3)[C@H](OC)C2)CC(=O)[C@H](C)/C=C(\C)[C@@H](O)[C@@H](OC)C(=O)[C@H](C)C[C@H](C)/C=C/C=C/C=C/1C [zotarolimus]
Method in brief: as §1

idasanutlin = compound: COc1cc(C(=O)O)ccc1NC(=O)[C@@H]1N[C@@H](CC(C)(C)C)[C@](C#N)(c2ccc(Cl)cc2F)[C@H]1c1cccc(Cl)c1F [idasanutlin]
Method in brief: as §1

alisertib = compound: COc1cc(Nc2ncc3c(n2)-c2ccc(Cl)cc2C(c2c(F)cccc2OC)=NC3)ccc1C(=O)O [alisertib]
Method in brief: as §1

[2] = compound: COc1cc2nc(-c3cc(F)ccc3O)nc(N[C@@H]3CNC[C@H]3C(C)(C)O)c2cc1OC
Method in brief: as §1

gefitinib = compound: COc1cc2ncnc(Nc3ccc(F)c(Cl)c3)c2cc1OCCCN1CCOCC1 [gefitinib]
Method in brief: as §1

[3] = compound: COc1cccc2cc(-c3nc([C@H]4CC[C@H](C(=O)O)CC4)n4ncnc(N)c34)[nH]c12
Method in brief: as §1

lapatinib = compound: CS(=O)(=O)CCNCc1ccc(-c2ccc3ncnc(Nc4ccc(OCc5cccc(F)c5)c(Cl)c4)c3c2)o1 [lapatinib]
Method in brief: as §1

pictilisib = compound: CS(=O)(=O)N1CCN(Cc2cc3nc(-c4cccc5[nH]ncc45)nc(N4CCOCC4)c3s2)CC1 [pictilisib]
Method in brief: as §1

[4] = compound: CS(=O)(=O)c1ccc(-c2cnc(N)c(C(=O)Nc3ccccc3)n2)cc1
Method in brief: as §1

crizotinib = compound: C[C@@H](Oc1cc(-c2cnn(C3CCNCC3)c2)cnc1N)c1c(Cl)ccc(F)c1Cl [crizotinib]
Method in brief: as §1

[5] = compound: C[C@@H]1COCCN1C2=NC(=NC(=C2)C3(CC3)S(=O)(=O)C)C4=C5C=CNC5=CC=C4
Method in brief: as §1

[6] = compound: C[C@H](C1=CC=C(C=C1)C(=O)NC2=C3C=CNC3=NC=C2)N
Method in brief: as §1

duvelisib = compound: C[C@H](Nc1ncnc2nc[nH]c12)c1cc2cccc(Cl)c2c(=O)n1-c1ccccc1 [duvelisib]
Method in brief: as §1

gandotinib = compound: Cc1cc(Nc2cc(CN3CCOCC3)c3nc(C)c(Cc4ccc(Cl)cc4F)n3n2)n[nH]1 [gandotinib]
Method in brief: as §1

tozasertib = compound: Cc1cc(Nc2cc(N3CCN(C)CC3)nc(Sc3ccc(NC(=O)C4CC4)cc3)n2)n[nH]1 [tozasertib]
Method in brief: as §1

[7] = compound: Cc1cc(SCc2sc(-c3ccc(C(F)(F)F)cc3)nc2C)ccc1OCC(=O)O
Method in brief: as §1

doramapimod = compound: Cc1ccc(-n2nc(C(C)(C)C)cc2NC(=O)Nc2ccc(OCCN3CCOCC3)c3ccccc23)cc1 [doramapimod]
Method in brief: as §1

ispinesib = compound: Cc1ccc(C(=O)N(CCCN)[C@@H](c2nc3cc(Cl)ccc3c(=O)n2Cc2ccccc2)C(C)C)cc1 [ispinesib]
Method in brief: as §1

Target	log2 fold change [1]	log2 fold change (filanesib)	log2 fold change (zotarolimus)	log2 fold change (idasanutlin)	log2 fold change (alisertib)	log2 fold change [2]	log2 fold change (gefitinib)	log2 fold change [3]	log2 fold change (lapatinib)	log2 fold change (pictilisib)	log2 fold change [4]	log2 fold change (crizotinib)	log2 fold change [5]	log2 fold change [6]	log2 fold change (duvelisib)	log2 fold change (gandotinib)	log2 fold change (tozasertib)	log2 fold change [7]	log2 fold change (doramapimod)	log2 fold change (ispinesib)
MPZL1 (UniProt O95297)	inactive: -0.035	inactive: 0.095	inactive: 0.014	inactive: 0.021	inactive: -0.06	inactive: 0.111	inactive: 0.027	inactive: 0.06	inactive: -0.092	inactive: -0.029	inactive: 0	inactive: 0.17	inactive: 0.02	inactive: -0.084	inactive: 0.065	inactive: 0.1	inactive: -0.097	inactive: -0.077	inactive: -0.015	inactive: 0.035
MRPL44 (UniProt Q9H9J2)	inactive: 0	inactive: 0.124	inactive: 0.096	inactive: -0.041	inactive: -0.01	inactive: -0.015	inactive: -0.056	inactive: -0.009	inactive: 0.141	inactive: -0.149	inactive: 0.046	inactive: 0.038	inactive: -0.183	inactive: 0.249	inactive: -0.155	inactive: 0.068	inactive: 0.009	inactive: 0.053	inactive: 0.136	inactive: -0.055
MRPL20 (UniProt Q9BYC9)	inactive: 0.019	inactive: 0.169	inactive: 0.16	inactive: -0.08	inactive: -0.094	inactive: 0.052	inactive: -0.019	inactive: -0.058	inactive: 0.103	inactive: 0.018	inactive: 0.04	inactive: 0.069	inactive: -0.038	inactive: 0.258	inactive: -0.117	inactive: 0	inactive: 0.007	inactive: 0.07	inactive: 0.055	inactive: -0.044
MORF4L1 isoform 2 (UniProt Q9UBU8)	inactive: 0.017	inactive: 0.032	inactive: 0.007	inactive: 0.002	inactive: -0.053	inactive: -0.069	inactive: -0.032	inactive: -0.014	inactive: 0.017	inactive: -0.057	inactive: -0.05	inactive: -0.076	inactive: 0.106	inactive: 0.026	inactive: 0.02	inactive: -0.023	inactive: 0.031	inactive: -0.036	inactive: -0.03	inactive: -0.012
MLLT1 (UniProt Q03111)	inactive: -0.091	inactive: 0	inactive: 0	inactive: 0.029	inactive: -0.156	inactive: 0.031	inactive: -0.048	inactive: -0.056	inactive: -0.004	inactive: -0.034	inactive: -0.031	inactive: 0.051	inactive: -0.006	inactive: 0.082	inactive: 0.007	inactive: 0.151	inactive: -0.044	inactive: 0.043	inactive: 0.057	inactive: -0.219
MRPL45 (UniProt Q9BRJ2)	inactive: -0.026	inactive: 0.124	inactive: 0.037	inactive: -0.115	inactive: -0.153	inactive: 0.02	inactive: -0.132	inactive: -0.089	inactive: 0.109	inactive: 0.013	inactive: 0.031	inactive: 0.048	inactive: -0.016	inactive: 0.162	inactive: -0.011	inactive: -0.035	inactive: -0.054	inactive: 0.177	inactive: 0.077	inactive: -0.118
MICALL1 (UniProt Q8N3F8)	inactive: -0.022	inactive: -0.042	inactive: -0.081	inactive: 0.086	inactive: 0.292	inactive: 0.145	inactive: -0.034	inactive: -0.102	inactive: -0.175	inactive: 0.059	inactive: 0.041	inactive: -0.005	inactive: 0.065	inactive: 0.12	inactive: 0.111	inactive: -0.241	inactive: -0.046	inactive: -0.031	inactive: 0.14	inactive: -0.153
MLEC (UniProt Q14165)	inactive: -0.043	inactive: -0.005	inactive: 0.032	inactive: 0.009	inactive: -0.047	inactive: 0.034	inactive: -0.029	inactive: 0.006	inactive: -0.002	inactive: -0.014	inactive: 0.013	inactive: 0.049	inactive: -0.007	inactive: 0.057	inactive: -0.005	inactive: 0.027	inactive: 0.011	inactive: 0.034	inactive: 0.006	inactive: -0.03
MRE11 isoform 3 (UniProt P49959)	inactive: -0.088	inactive: 0.004	inactive: 0.01	inactive: 0.04	inactive: -0.045	inactive: 0.01	inactive: 0.044	inactive: -0.019	inactive: 0.02	inactive: -0.028	inactive: 0.014	inactive: 0.112	inactive: -0.031	inactive: -0.042	inactive: 0.015	inactive: 0.021	inactive: 0.029	inactive: -0.04	inactive: -0.034	inactive: 0.04
MRPL23 (UniProt Q16540)	inactive: -0.013	inactive: 0.193	inactive: 0.095	inactive: -0.055	inactive: -0.104	inactive: 0.063	inactive: -0.035	inactive: -0.063	inactive: 0.154	inactive: -0.186	inactive: 0.064	inactive: 0.05	inactive: -0.064	inactive: 0.234	inactive: -0.177	inactive: 0.11	inactive: 0.041	inactive: 0.057	inactive: 0.088	inactive: -0.101
MINDY3 (UniProt Q9H8M7)	inactive: -0.005	inactive: -0.04	inactive: 0	inactive: -0.033	inactive: -0.015	inactive: 0.077	inactive: 0.031	inactive: 0.043	inactive: -0.006	inactive: 0.072	inactive: -0.02	inactive: 0.001	inactive: 0.083	inactive: 0.034	inactive: 0.034	inactive: -0.077	inactive: -0.067	inactive: 0	inactive: 0.026	inactive: 0.029
MRPL17 (UniProt Q9NRX2)	inactive: -0.074	inactive: 0.222	inactive: 0.027	inactive: -0.07	inactive: -0.115	inactive: -0.062	inactive: -0.112	inactive: -0.071	inactive: 0.13	inactive: -0.023	inactive: 0.066	inactive: 0.009	inactive: 0.004	inactive: 0.227	inactive: -0.053	inactive: 0.012	inactive: -0.036	inactive: 0.086	inactive: 0.056	inactive: -0.156
MRPL14 (UniProt Q6P1L8)	inactive: 0.138	inactive: -0.036	inactive: 0.033	inactive: -0.09	inactive: -0.094	inactive: -0.034	inactive: 0.009	inactive: 0.001	inactive: 0.034	inactive: -0.158	inactive: 0.091	inactive: -0.069	inactive: 0.031	inactive: -0.026	inactive: -0.079	inactive: 0.02	inactive: 0.019	inactive: -0.023	inactive: 0.052	inactive: -0.127
MRPL11 (UniProt Q9Y3B7)	inactive: 0.015	inactive: 0.139	inactive: 0.116	inactive: -0.088	inactive: -0.044	inactive: 0	inactive: -0.054	inactive: -0.095	inactive: 0.168	inactive: -0.044	inactive: -0.03	inactive: -0.001	inactive: -0.025	inactive: 0.231	inactive: -0.004	inactive: 0.127	inactive: 0.051	inactive: 0.136	inactive: 0.066	inactive: -0.112
MLX (UniProt Q9UH92)	inactive: -0.054	inactive: 0.027	inactive: -0.009	inactive: -0.071	inactive: -0.014	inactive: 0.025	inactive: 0.022	inactive: 0.057	inactive: -0.099	inactive: 0.05	inactive: -0.038	inactive: -0.188	inactive: 0.092	inactive: -0.001	–	inactive: -0.239	–	inactive: 0.115	inactive: 0.03	inactive: -0.186
MORF4L2 (UniProt Q15014)	inactive: -0.149	inactive: 0.146	inactive: -0.044	inactive: 0.045	inactive: -0.066	inactive: -0.085	inactive: -0.048	inactive: -0.074	inactive: 0.03	inactive: -0.063	inactive: -0.085	inactive: 0.013	active: -0.275	inactive: 0.053	–	inactive: 0.085	–	inactive: -0.012	inactive: 0.035	inactive: 0.011

Record cards, as listed above. Order of values: log2 fold change [1]	log2 fold change (filanesib)	log2 fold change (zotarolimus)	log2 fold change (idasanutlin)	log2 fold change (alisertib)	log2 fold change [2]	log2 fold change (gefitinib)	log2 fold change [3]	log2 fold change (lapatinib)	log2 fold change (pictilisib)	log2 fold change [4]	log2 fold change (crizotinib)	log2 fold change [5]	log2 fold change [6]	log2 fold change (duvelisib)	log2 fold change (gandotinib)	log2 fold change (tozasertib)	log2 fold change [7]	log2 fold change (doramapimod)	log2 fold change (ispinesib)
MINDY3 (UniProt Q9H8M7) in the list: inactive: -0.005	inactive: -0.04	inactive: 0	inactive: -0.033	inactive: -0.015	inactive: 0.077	inactive: 0.031	inactive: 0.043	inactive: -0.006	inactive: 0.072	inactive: -0.02	inactive: 0.001	inactive: 0.083	inactive: 0.034	inactive: 0.034	inactive: -0.077	inactive: -0.067	inactive: 0	inactive: 0.026	inactive: 0.029
MPZL1 (UniProt O95297) in the list: inactive: -0.035	inactive: 0.095	inactive: 0.014	inactive: 0.021	inactive: -0.06	inactive: 0.111	inactive: 0.027	inactive: 0.06	inactive: -0.092	inactive: -0.029	inactive: 0	inactive: 0.17	inactive: 0.02	inactive: -0.084	inactive: 0.065	inactive: 0.1	inactive: -0.097	inactive: -0.077	inactive: -0.015	inactive: 0.035
